Results are given in words; binding and its absence hold for the method and conditions named. Binding seen in cells or lysates may run through a third protein. Some results given as binding are weak or reduced against the parent protein; the word gives no strength.
Assays:
[1] = molecular target: nucleolin (NCL) (human (endogenous in MNNG/HOS)) (UniProt P19338); assay: co-IP; whole-cell extracts of MNNG/HOS cells without aptamer treatment; anti-NCL antibody or IgG, Protein A/G magnetic beads, western blot
[2] = molecular target: nucleolin (NCL) (human (endogenous in MNNG/HOS)) (UniProt P19338); assay: pull-down + ELISA; biotin pull-down with AS1411-SL1-2 at several concentrations; eluted proteins quantified by sandwich ELISA kits for MDM2, NCL and c-MET
[3] = molecular target: nucleolin (NCL) (human (endogenous in MNNG/HOS)) (UniProt P19338); assay: pull-down + ELISA; biotin pull-down with AS1411 alone (ligand of NCL) or SL1 alone (ligand of c-MET); eluted proteins quantified by sandwich ELISA kits for MDM2, NCL and c-MET
[4] = molecular target: nucleolin (NCL) (human (endogenous in MNNG/HOS)) (UniProt P19338); assay: pull-down; MNNG/HOS cells treated with 500 nM biotin-labeled AS1411-SL1-2 or CRO for 6 h, lysed, streptavidin-coated magnetic beads, western blot; also siNC- or siNCL-transfected cells
[5] = molecular target: nucleolin (NCL) (human (endogenous in MNNG/HOS)) (UniProt P19338); assay: co-IP; whole-cell extracts of MNNG/HOS cells treated with 500 nM AS1411-SL1-2 (or AS1411) for 2 h; anti-NCL or anti-MDM2 antibody, Protein A/G magnetic beads, western blot; also siNCL- or siMDM2-transfected cells
[6] = molecular target: nucleolin (NCL) (human (endogenous in MNNG/HOS)) (UniProt P19338); assay: pull-down; MNNG/HOS cells treated with 500 nM biotin-labeled AS1411 (ligand of NCL) or CRO for 6 h, lysed, streptavidin-coated magnetic beads, western blot; also siNC- or siNCL-transfected cells

Protein sequences, listed by entry. Tags and fused reporters are not part of them.
UniProt P19338: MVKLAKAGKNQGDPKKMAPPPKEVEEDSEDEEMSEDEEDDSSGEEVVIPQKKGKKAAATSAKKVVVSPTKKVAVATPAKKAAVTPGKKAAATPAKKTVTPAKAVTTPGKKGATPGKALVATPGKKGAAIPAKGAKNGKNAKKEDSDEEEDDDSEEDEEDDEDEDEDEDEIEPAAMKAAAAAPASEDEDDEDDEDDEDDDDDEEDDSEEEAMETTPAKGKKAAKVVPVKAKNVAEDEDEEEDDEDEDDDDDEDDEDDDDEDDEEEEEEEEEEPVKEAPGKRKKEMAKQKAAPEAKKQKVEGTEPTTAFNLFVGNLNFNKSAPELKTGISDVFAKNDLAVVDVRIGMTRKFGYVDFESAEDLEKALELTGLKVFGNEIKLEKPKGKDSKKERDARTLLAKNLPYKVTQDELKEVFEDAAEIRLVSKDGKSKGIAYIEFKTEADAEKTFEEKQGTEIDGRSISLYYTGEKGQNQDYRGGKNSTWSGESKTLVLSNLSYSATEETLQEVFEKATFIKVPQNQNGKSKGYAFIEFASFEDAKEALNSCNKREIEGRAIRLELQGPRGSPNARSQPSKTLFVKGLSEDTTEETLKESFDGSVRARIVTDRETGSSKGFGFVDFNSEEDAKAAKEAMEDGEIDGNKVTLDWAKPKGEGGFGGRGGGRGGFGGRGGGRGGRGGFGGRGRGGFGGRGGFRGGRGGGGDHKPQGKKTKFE
UniProt Q00987: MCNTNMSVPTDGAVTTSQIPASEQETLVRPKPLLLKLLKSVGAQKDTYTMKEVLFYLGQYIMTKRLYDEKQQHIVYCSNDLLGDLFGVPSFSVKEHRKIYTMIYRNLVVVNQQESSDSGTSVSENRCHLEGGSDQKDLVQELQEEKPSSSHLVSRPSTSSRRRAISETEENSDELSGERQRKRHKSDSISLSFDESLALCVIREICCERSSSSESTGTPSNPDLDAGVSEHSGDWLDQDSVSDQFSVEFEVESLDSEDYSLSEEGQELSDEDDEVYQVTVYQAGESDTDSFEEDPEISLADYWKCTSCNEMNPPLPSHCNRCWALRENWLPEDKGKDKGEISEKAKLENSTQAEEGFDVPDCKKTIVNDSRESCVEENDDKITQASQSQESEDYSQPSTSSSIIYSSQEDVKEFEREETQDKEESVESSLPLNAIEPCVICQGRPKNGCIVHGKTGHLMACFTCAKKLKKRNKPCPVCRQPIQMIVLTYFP

binding [1]: binds | binding [2]: binds | binding [3]: binds | binding [4]: binds | binding [5]: binds | binding [6]: binds
Substance: mouse double minute 2 homolog (MDM2) (from UniProt Q00987 1-491) (enzyme)

Source: publication PMC11667235
